Results reported in patent US12213506B2, “Compositions and methods to counteract processes associated with inflammation and senescence and to support cellular energy and/or metabolism” (priority 2021, dated 2025).
At least one structure is not confirmed: it was looked up by name or label, or the drawing left a doubt.

Tested on: IL-2
Format: cell-based, human

Compound: C[C@@H]1C[C@H]2[C@@H]3CCC4=CC(=O)C=C[C@]4(C)[C@@]3(F)[C@@H](O)C[C@]2(C)[C@@]1(O)C(=O)CO [dexamethasone]
- SEB-induced IL-2 synthesis: potently prevented
